Drawing on PubChem BioAssay AID322 (DTP/NCI, 2004), this text covers T/C and survivor count for 19 compounds.

This assay concerns CD2F1 mice, P388/ADR leukemia ip, median survival T/C. Nature of the assay: NCI In Vivo Anticancer Drug Screen. Data for tumor model P388 Leukemia resistant to Adriamycin; NSC 123127, Developed at Scr 08 (intraperitoneal) in CD2F1 (CDF1) mice. Particulars: T/C endpoint: median survival time, higher T/C = longer survival. On the procedure: The antitumor activity of compounds was measured in mice bearing transplantable tumors. Survival or tumor size were measured and the results are expressed as the measurement made in the treated group (T) divided by the measurement made in the vehicle treated control group (C). The tumor model used in this assay is P388 Leukemia resistant to Adriamycin; NSC 123127, Developed at Scr 08 (intraperitoneal) in CD2F1 (CDF1) mice

[1] abbreviates: dose: 400.0 mg/kg/injection, schedule: Q01DX005 (ip), vehicle: Klucel (hydroxypropylcellulose) (HPC).
[2] abbreviates: dose: 12.0 mg/kg/injection, schedule: Q01DX005 (ip), vehicle: saline with Tween-80.
Where [3] appears, read: dose: 6.0 mg/kg/injection, schedule: Q01DX005 (ip), vehicle: saline with Tween-80.

Structures are written as SMILES. The list shows only some results of the screen, not a fair sample: it gathers tests that were run many times, whatever their T/C, doses with no T/C, and many T/C values between a quarter and a half above the control. Other doses and runs of a compound stand elsewhere. T/C is the treated group as % of the vehicle group. Some entries give survivors of the animals treated and no T/C: the source files T/C as zero there, which appears to mark a toxic dose or a test without result, not a measured value. Some doses without a T/C left all or most animals alive at the check, yet need not have been tolerated: survival well below the control is almost never listed, so the zero probably covers shortened survival too. Survivors were counted at the toxicity check, usually on the fifth day, unless a day is given; later deaths do not show. Schedule codes are those of the source, read here as Q, the interval in days (D) or hours (H), X, the number of doses. Additions like (4×) count equal records among those shown. Some entries were tested several times; the values are given in rising order. Where survival is the endpoint, this PubChem deposit counts one and a half times the control or more as active, and values a quarter to a half above the control carry no call in these data; other NCI protocols may use other cut-offs. Some T/C values carry the count of animals alive at the toxicity check (mostly the fifth day); where none is given, no animal had died by that day.

Regarding `O=C1C=C(N2CC2)C(=O)C(N2CC2)=C1N1CC1`, where the note is “dose: 0.02 mg/kg/injection, schedule: Q01DX005 (ip), vehicle: saline”, the T/C is 140 % of control.

Turning to `CN(Cc1cnc2nc(N)nc(N)c2n1)c1ccc(C(=O)N[C@@H](CCC(=O)O)C(=O)O)cc1`, the T/C (dose: 0.38 mg/kg/injection, schedule: Q01DX005 (ip), vehicle: sodium bicarbonate) was 145 % of control; the T/C (dose: 0.75 mg/kg/injection, schedule: Q01DX005 (ip), vehicle: sodium bicarbonate) is 142 % of control; the T/C (dose: 1.5 mg/kg/injection, schedule: Q01DX005 (ip), vehicle: sodium bicarbonate) is 149 % of control. In addition, the survivor count (dose: 6.0 mg/kg/injection, schedule: Q01DX005 (ip), vehicle: sodium bicarbonate) is 10 of 10 (2×).

On to `CCOC1NC(=O)Oc2ccccc21` (centres undefined), for which the survivor count (dose: 12.5 mg/kg/injection, schedule: Q01DX005 (ip), vehicle: Klucel (hydroxypropylcellulose) (HPC)) is 10 of 10; the survivor count under setting [1] is listed as 2 of 10; the survivor count (dose: 556.0 mg/kg/injection, schedule: Q01DX005 (ip), vehicle: Klucel (hydroxypropylcellulose) (HPC)) is 0 of 10. For the setting “dose: 200.0 mg/kg/injection, schedule: Q01DX005 (ip), vehicle: Klucel (hydroxypropylcellulose) (HPC)”, the T/C was 133 % of control.

For `COc1ccc2c(c1)-c1nn(CCCN(C)C)c3ccc([N+](=O)[O-])c(c13)N2`, the T/C runs as follows: (dose: 4.5 mg/kg/injection, schedule: Q01DX005 (ip), vehicle: water) 125 % of control; (dose: 7.5 mg/kg/injection, schedule: Q01DX005 (ip), vehicle: water) 125 % of control; (dose: 12.5 mg/kg/injection, schedule: Q01DX005 (ip), vehicle: water) 133 % of control; (dose: 21.0 mg/kg/injection, schedule: Q01DX005 (ip), vehicle: water) 145 % of control; (dose: 35.0 mg/kg/injection, schedule: Q01DX005 (ip), vehicle: water) 147 % of control.

In the case of `O=NN(CCCl)C(=O)NCCCl`, the T/C (dose: 10.0 mg/kg/injection, schedule: Q01DX001 (ip), vehicle: saline + alcohol) was 129 and 142 % of control. Further, under “dose: 80.0 mg/kg/injection, schedule: Q01DX001 (ip), vehicle: saline + alcohol”, the survivor count is given as 10 of 10.

Regarding `CC1(C)N=C(N)N=C(N)N1c1ccc(CCCCc2ccc(S(=O)(=O)F)cc2Cl)c(Cl)c1`, the survivor count (dose: 60.0 mg/kg/injection, schedule: Q01DX009 (ip), vehicle: saline with Tween-80) is 10 of 10.

For the compound `COC(=O)C[C@](O)(CCCC(C)(C)O)C(=O)O[C@@H]1C(OC)=C[C@]23CCCN2CCc2cc4c(cc2[C@H]13)OCO4`, the survivor count (dose: 1.3 mg/kg/injection, schedule: Q01DX009 (ip), vehicle: acid diluted with saline) is given as 7 of 10; the survivor count (dose: 2.0 mg/kg/injection, schedule: Q01DX009 (ip), vehicle: acid diluted with saline) is 4 of 10 and 10 of 10.

As to `CN(C)CCN1C(=O)c2cccc3cc(N)cc(c23)C1=O`, the T/C (dose: 11.0 mg/kg/injection, schedule: Q01DX009 (ip), vehicle: saline with Tween-80) is 129 % of control.

For `Cc1cc(O)c2c(c1O)C(=O)C13C(=C2O)C(=O)C2C(O)C1C1C(O)C3C(=O)C3=C(O)c4c(O)cc(C)c(O)c4C(=O)C321` (centres undefined), under setting [2], the survivor count was 6 of 10.

As for `O=C1C=CC2OC(c3ccccc3)C(O)C2O1` (centres undefined), where the note is “dose: 25.0 mg/kg/injection, schedule: Q01DX005 (ip), vehicle: saline with Tween-80”, the T/C was 132 % of control.

Regarding `Cc1c2ccncc2c(C)c2c1[nH]c1ccccc12`, the T/C runs as follows: (dose: 90.0 mg/kg/injection, schedule: Q04DX002 (ip), vehicle: saline with Tween-80) 138 % of control; (dose: 134.0 mg/kg/injection, schedule: Q04DX002 (ip), vehicle: saline with Tween-80) 135 % of control; (dose: 200.0 mg/kg/injection, schedule: Q04DX002 (ip), vehicle: saline with Tween-80) 144 % of control.

Take `COc1cccc2c1C(CO)N1C(C#N)C3CC(C(=O)O)C(C1C2)N3C` (centres undefined): the survivor count is, setting by setting: (dose: 50.0 mg/kg/injection, schedule: Q01DX005 (ip), vehicle: saline) 9 of 10; (dose: 50.0 mg/kg/injection, schedule: Q01DX005 (ip), vehicle: suspension in saline) 10 of 10.

For the compound `CCCCCCCCCCCCN1C(C)=CS/C1=C\C=C\c1scc(C)[n+]1CCCCCCCCCCCC`, the survivor count runs as follows: under setting [3], 6 of 6; under setting [2], 0 of 6.

For the compound `COc1ccc(C(C)c2cc3c(cc2OC)OCO3)cc1` (centres undefined), under “dose: 100.0 mg/kg/injection, schedule: Q01DX005 (ip), vehicle: saline with Tween-80”, the T/C is 137 % of control. Besides, under “dose: 200.0 mg/kg/injection, schedule: Q01DX005 (ip), vehicle: saline with Tween-80”, the survivor count was 10 of 10.

On to `CC[C@@]1(O)C(=O)OCc2c1cc1n(c2=O)Cc2cc3ccccc3nc2-1`, for which, under “dose: 0.75 mg/kg/injection, schedule: Q01DX005 (ip), vehicle: saline with Tween-80”, the T/C is 147 % of control. The survivor count is, setting by setting: under setting [3], 10 of 10; (dose: 10.0 mg/kg/injection, schedule: Q01DX005 (ip), vehicle: saline with Tween-80) 10 of 10; under setting [2], 10 of 10; (dose: 16.67 mg/kg/injection, schedule: Q01DX005 (ip), vehicle: saline with Tween-80) 10 of 10; (dose: 22.5 mg/kg/injection, schedule: Q04DX002 (ip), vehicle: saline with Tween-80) 10 of 10.

Regarding `O=C(O)CCCc1ccc(N(CCCl)CCCl)cc1`, the T/C is 137 % of control (dose: 2.5 mg/kg/injection, schedule: Q01DX005 (ip), vehicle: saline with Tween-80) and 141 % of control (dose: 5.0 mg/kg/injection, schedule: Q01DX005 (ip), vehicle: saline with Tween-80). Where the note is “dose: 20.0 mg/kg/injection, schedule: Q01DX005 (ip), vehicle: saline with Tween-80”, the survivor count was 5 of 10.

Consider `CCOc1ccc(C(C)c2cc3c(cc2OC)OCO3)cc1` (centres undefined), for which the T/C is 135 % of control (dose: 72.0 mg/kg/injection, schedule: Q01DX005 (ip), vehicle: distilled water + Tween-80); 148 % of control (dose: 120.0 mg/kg/injection, schedule: Q01DX005 (ip), vehicle: distilled water + Tween-80); 139 % of control (dose: 200.0 mg/kg/injection, schedule: Q01DX005 (ip), vehicle: distilled water + Tween-80). The survivor count by setting is: (dose: 400.0 mg/kg/injection, schedule: Q01DX005 (ip), vehicle: distilled water + Tween-80) 10 of 10; (dose: 555.55 mg/kg/injection, schedule: Q01DX005 (ip), vehicle: distilled water + Tween-80) 9 of 10; (dose: 555.56 mg/kg/injection, schedule: Q01DX005 (ip), vehicle: distilled water + Tween-80) 9 of 10.

For `C=C1c2cccc(O)c2C(O)=C2C(=O)[C@]3(O)C(O)=C(C(N)=O)C(=O)[C@@H](N(C)C)[C@@H]3[C@@H](O)[C@H]12`, the T/C is, setting by setting: (dose: 100.0 mg/kg/injection, schedule: Q01DX005 (ip), vehicle: Klucel (hydroxypropylcellulose) (HPC)) 133 % of control; (dose: 166.67 mg/kg/injection, schedule: Q01DX005 (ip), vehicle: Klucel (hydroxypropylcellulose) (HPC)) 129 % of control [9 of 10 alive]. For the same compound, the survivor count by setting is: (dose: 277.77 mg/kg/injection, schedule: Q01DX005 (ip), vehicle: Klucel (hydroxypropylcellulose) (HPC)) 4 of 10; under setting [1], 0 of 10.

Turning to `CNC(=O)OCc1nc(SC)n(C)c1COC(=O)NC`, the T/C runs as follows: (dose: 34.0 mg/kg/injection, schedule: Q01DX005 (ip), vehicle: saline) 144 % of control; (dose: 80.0 mg/kg/injection, schedule: Q01DX005 (ip), vehicle: saline) 131 % of control. Also, the survivor count is 9 of 10 (dose: 115.0 mg/kg/injection, schedule: Q01DX005 (ip), vehicle: saline) and 10 of 10 (dose: 172.0 mg/kg/injection, schedule: Q01DX005 (ip), vehicle: saline).
